Experiment [1] deals with T1, Metastasis Associated in Colon Cancer 1 (MACC1), endogenous in SW620 cells (human (endogenous in SW620)) (UniProt Q6ZN28).
T1 sequence: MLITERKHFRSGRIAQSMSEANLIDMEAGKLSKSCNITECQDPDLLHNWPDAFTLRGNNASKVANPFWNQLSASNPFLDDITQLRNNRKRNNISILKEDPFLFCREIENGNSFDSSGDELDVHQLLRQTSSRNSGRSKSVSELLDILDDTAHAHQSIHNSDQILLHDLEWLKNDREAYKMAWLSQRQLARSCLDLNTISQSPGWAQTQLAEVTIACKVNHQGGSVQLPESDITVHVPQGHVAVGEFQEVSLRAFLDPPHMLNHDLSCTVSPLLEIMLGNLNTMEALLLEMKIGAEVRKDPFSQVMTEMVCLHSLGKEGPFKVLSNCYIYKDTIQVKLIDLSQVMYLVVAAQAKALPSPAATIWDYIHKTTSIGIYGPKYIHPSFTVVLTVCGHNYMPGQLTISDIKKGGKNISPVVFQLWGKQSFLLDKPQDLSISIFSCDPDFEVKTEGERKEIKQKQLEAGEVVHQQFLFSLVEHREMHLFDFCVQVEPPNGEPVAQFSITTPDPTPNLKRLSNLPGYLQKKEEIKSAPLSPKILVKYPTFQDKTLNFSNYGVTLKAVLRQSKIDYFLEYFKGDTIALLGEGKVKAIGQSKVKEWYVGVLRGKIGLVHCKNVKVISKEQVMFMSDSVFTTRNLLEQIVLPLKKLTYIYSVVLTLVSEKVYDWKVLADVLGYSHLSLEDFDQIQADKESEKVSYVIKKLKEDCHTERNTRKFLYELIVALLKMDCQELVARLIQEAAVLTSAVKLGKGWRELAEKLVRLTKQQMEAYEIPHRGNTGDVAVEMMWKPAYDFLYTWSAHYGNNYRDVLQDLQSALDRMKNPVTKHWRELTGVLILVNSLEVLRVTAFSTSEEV
The experiment can be described thus: co-IP; IP (pull-down) of MACC1 or its GFP-tagged variants from lysates of SW620, SW480/MACC1, SW480/MACC1-GFP and SW480 deletion-variant cells; CoIP lysing buffer (20 mM Tris–HCl pH 7.5, 150 mM NaCl, 0.1% NP40, 1 mM EDTA, 1% Triton X 100), antibody over night at 4 °C, protein-G Sepharose; Western blot. (A western blot detects proteins with antibodies after separation by electrophoresis.)

Sequences of proteins named here, by UniProt entry; tags and fusion partners are left off.
UniProt Q00610: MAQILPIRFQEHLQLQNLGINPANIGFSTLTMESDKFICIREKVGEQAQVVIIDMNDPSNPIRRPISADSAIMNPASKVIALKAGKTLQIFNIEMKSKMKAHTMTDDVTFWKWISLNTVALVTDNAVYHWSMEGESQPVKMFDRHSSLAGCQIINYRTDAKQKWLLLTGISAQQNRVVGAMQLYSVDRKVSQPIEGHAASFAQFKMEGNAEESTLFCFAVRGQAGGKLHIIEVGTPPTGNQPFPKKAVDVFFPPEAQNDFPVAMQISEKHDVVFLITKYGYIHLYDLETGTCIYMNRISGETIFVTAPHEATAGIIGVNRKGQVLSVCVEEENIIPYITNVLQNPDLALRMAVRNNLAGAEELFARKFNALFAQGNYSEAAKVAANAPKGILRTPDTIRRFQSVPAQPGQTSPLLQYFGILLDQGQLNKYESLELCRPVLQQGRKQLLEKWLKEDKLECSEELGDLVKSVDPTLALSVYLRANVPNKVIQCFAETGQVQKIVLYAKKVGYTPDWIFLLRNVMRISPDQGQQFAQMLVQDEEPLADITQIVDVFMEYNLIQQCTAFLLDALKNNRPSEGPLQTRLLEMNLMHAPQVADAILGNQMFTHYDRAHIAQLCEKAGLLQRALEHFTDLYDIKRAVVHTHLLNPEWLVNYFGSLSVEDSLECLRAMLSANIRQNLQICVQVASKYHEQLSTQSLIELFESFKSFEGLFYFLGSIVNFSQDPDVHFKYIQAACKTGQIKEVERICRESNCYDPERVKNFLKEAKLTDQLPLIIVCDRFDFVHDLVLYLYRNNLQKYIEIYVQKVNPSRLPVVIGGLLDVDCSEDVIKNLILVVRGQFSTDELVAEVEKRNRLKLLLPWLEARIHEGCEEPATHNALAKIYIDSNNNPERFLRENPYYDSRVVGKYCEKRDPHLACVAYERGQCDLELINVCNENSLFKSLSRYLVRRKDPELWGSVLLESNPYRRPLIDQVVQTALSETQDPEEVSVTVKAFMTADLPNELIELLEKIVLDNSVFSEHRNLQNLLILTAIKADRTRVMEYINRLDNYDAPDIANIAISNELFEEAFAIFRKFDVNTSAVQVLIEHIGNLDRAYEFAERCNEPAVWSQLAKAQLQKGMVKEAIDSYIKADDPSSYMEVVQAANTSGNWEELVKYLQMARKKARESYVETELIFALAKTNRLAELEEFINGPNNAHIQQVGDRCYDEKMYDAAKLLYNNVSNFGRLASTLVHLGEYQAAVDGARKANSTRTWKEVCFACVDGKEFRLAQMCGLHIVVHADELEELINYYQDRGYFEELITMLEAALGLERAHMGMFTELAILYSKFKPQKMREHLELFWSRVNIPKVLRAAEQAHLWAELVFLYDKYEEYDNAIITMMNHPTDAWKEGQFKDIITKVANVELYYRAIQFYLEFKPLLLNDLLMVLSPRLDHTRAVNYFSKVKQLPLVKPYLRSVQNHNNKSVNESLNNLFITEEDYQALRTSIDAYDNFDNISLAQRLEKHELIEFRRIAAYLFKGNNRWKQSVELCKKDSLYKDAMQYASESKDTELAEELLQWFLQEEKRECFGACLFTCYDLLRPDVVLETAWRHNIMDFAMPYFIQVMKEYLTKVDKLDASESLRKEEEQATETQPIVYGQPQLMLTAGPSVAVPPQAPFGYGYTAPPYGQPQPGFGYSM

For experiment [2], the target named is T2, full-length MACC1, C-terminal GFP fusion (MACC1-GFP) (human) (UniProt Q6ZN28).
T2 sequence: T1 sequence
The experiment is described as above.

Experiment [3] addresses T3, MACC1, ectopically overexpressed in SW480 cells (SW480/MACC1) (human) (UniProt Q6ZN28).
T3 sequence: T1 sequence
The experiment is described as above.

Experiment [4] deals with epidermal growth factor receptor (EGFR) (human (endogenous in SW620 and SW480)) (UniProt P00533). The experiment can be described thus: co-IP; EGFR pulled down from SW620 and SW480/MACC1 lysates, MACC1 co-precipitated; CoIP lysing buffer, antibody over night at 4 °C, protein-G Sepharose; Western blot.

Here are results for three molecules from publication PMC8038998.

These are yes or no findings as the source states them, for the method shown. Binding seen in cells or lysates may run through a third protein. Some entries that bind do so weakly or less than the wild type. For some assays here: Tags and fused reporters may be left off the sequences shown.

Turning to “clathrin heavy chain 1 (CLTC) (from UniProt Q00610 1-1675)”, the binding result in experiment [1], in experiment [2] and in experiment [3] was “binds” in each case.

B1: Metastasis Associated in Colon Cancer 1 (MACC1), endogenous in SW620 cells (protein, UniProt Q6ZN28 1-852)
chain: T1 sequence
For the molecule B1, the binding result in experiment [4] is reported as “binds”.

B2: MACC1, ectopically overexpressed in SW480 cells (SW480/MACC1) (protein, UniProt Q6ZN28 1-852)
chain: T1 sequence
For B2, the binding entry in experiment [4] is “binds”.
